Test results taken from paper doi:10.1101/2021.06.17.448349.
These are yes or no findings as the source states them, for the method shown. In cells and extracts the contact can be indirect. These calls come from enrichment with a bait or labelling near it, and not all partners need be listed.

Sequences of proteins named here, by UniProt entry; tags and fusion partners are left off.
UniProt P68363: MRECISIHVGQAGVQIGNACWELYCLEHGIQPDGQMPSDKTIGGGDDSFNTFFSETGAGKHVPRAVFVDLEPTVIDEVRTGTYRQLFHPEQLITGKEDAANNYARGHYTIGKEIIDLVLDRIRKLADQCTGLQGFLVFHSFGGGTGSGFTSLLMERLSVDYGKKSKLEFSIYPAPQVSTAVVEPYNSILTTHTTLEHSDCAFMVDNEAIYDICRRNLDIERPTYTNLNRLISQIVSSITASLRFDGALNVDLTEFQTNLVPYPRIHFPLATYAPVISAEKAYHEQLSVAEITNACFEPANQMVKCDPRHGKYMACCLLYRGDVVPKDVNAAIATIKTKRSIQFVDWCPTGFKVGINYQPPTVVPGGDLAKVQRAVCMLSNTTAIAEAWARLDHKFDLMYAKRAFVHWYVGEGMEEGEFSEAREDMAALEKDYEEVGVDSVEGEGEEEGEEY
UniProt P46821: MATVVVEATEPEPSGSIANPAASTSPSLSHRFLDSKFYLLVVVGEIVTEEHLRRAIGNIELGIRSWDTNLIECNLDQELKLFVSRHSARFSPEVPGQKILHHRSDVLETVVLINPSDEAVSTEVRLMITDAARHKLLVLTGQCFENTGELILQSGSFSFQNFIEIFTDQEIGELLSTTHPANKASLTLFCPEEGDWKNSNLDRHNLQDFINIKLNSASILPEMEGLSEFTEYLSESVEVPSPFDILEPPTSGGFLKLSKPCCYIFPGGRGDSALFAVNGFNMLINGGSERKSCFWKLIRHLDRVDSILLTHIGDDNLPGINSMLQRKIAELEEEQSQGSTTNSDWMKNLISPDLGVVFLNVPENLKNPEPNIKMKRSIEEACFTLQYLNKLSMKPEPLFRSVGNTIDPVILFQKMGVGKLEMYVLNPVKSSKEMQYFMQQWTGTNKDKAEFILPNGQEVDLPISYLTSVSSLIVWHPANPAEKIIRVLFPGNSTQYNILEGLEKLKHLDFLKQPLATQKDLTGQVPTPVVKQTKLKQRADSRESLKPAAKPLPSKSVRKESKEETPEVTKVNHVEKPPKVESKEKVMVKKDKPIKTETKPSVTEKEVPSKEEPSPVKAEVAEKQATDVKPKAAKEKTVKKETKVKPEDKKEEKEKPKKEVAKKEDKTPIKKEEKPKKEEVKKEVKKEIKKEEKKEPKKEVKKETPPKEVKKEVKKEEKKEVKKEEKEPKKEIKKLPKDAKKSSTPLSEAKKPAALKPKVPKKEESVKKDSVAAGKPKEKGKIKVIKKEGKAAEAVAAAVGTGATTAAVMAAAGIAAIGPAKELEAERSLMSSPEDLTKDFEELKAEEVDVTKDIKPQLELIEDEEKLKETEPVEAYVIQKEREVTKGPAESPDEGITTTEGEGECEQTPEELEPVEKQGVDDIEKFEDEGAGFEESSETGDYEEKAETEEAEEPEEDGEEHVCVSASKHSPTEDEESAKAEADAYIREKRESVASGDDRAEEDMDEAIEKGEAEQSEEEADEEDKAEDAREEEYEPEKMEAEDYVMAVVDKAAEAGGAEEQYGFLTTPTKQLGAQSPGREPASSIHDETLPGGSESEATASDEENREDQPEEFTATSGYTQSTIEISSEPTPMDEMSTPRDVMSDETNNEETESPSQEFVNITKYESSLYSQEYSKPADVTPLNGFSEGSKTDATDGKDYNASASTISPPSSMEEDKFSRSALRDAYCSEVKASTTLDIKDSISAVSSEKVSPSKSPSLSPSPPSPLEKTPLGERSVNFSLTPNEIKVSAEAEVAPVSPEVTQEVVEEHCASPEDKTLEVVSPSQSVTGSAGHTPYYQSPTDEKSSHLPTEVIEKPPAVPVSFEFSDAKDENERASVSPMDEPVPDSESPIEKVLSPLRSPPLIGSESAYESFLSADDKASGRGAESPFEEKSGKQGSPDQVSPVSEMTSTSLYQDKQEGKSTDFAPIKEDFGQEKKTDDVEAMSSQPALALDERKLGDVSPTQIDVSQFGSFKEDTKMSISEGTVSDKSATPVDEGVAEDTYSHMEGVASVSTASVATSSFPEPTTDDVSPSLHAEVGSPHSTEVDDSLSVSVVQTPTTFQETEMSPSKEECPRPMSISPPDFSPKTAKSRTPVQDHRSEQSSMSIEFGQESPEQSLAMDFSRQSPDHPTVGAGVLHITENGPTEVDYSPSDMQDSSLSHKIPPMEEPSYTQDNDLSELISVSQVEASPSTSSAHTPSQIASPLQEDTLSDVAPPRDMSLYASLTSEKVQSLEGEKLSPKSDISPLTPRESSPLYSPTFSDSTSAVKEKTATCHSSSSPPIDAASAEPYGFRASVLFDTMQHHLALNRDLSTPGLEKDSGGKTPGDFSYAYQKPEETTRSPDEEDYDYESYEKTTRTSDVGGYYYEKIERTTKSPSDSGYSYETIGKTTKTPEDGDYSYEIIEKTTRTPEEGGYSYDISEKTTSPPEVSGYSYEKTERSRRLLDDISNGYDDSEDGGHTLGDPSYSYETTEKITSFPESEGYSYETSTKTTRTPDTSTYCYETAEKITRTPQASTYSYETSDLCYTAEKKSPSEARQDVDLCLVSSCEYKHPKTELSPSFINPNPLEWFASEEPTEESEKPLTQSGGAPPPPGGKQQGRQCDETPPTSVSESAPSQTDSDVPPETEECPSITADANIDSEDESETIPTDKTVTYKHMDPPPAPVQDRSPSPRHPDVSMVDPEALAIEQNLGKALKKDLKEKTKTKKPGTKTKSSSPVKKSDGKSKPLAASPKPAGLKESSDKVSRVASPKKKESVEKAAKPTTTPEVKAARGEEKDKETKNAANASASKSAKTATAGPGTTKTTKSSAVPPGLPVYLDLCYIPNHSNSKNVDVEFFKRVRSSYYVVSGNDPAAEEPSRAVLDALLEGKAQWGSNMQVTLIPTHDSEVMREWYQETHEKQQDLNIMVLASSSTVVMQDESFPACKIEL
UniProt P11137: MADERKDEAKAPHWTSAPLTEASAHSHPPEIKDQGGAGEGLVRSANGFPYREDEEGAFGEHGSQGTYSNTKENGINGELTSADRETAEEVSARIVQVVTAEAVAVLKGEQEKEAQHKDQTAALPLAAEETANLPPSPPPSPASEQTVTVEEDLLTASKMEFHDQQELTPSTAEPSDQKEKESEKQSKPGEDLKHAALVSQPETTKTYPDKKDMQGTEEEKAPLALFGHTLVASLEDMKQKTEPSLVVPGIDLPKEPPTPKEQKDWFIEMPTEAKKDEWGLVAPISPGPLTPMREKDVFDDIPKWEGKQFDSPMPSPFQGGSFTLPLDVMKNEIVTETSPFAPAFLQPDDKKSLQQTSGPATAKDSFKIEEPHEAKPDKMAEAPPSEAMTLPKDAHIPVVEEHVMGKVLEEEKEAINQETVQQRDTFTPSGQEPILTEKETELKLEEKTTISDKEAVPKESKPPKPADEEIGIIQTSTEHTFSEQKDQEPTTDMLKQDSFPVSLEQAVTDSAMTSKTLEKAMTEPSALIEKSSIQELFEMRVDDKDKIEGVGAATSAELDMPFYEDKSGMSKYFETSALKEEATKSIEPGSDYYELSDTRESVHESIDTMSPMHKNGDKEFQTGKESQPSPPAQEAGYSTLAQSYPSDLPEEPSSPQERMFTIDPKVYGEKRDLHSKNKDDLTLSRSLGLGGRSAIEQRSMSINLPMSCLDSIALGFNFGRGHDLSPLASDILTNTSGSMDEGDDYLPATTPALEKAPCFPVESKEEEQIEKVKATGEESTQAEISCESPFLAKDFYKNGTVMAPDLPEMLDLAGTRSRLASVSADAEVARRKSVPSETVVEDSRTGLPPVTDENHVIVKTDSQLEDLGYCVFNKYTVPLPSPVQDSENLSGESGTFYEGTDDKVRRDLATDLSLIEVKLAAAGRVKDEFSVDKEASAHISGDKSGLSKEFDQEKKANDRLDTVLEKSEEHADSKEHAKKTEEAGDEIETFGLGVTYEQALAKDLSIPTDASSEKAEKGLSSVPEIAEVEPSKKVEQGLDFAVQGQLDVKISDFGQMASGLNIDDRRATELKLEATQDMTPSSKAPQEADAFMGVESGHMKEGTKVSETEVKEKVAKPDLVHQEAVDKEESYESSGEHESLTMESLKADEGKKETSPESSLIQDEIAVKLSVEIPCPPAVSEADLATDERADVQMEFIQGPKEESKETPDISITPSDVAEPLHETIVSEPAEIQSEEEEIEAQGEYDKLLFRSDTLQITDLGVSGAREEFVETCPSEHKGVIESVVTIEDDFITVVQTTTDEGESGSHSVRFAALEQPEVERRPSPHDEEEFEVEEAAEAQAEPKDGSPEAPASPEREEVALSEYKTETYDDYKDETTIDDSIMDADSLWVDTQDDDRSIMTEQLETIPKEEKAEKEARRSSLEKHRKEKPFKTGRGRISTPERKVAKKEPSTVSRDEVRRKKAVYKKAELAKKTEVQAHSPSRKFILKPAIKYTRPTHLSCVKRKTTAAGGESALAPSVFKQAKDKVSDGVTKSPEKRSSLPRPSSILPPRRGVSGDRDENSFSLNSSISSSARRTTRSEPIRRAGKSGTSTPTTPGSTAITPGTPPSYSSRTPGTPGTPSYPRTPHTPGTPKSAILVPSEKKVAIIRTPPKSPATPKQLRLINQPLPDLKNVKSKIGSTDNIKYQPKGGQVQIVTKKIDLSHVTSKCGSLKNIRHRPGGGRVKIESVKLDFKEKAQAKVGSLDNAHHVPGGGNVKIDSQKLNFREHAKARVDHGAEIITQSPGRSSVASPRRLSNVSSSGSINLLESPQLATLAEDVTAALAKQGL

Target: APEX2-tagged Tubulin α 1b (UniProt P68363)
Assay: proximity labelling

Substance | binding
MAP1B (from UniProt P46821) | binds
MAP2 (from UniProt P11137 1-1827) | binds
